Some of the results follow.
How the values were obtained:
Assay in all cases: log2 fold change, soluble protein after heating vs DMSO (PISA); higher = thermal stabilisation; K562 lysate, 10 uM; active = over 0.2 and 3.5 SD of the protein, either way, in both replicates (recomputed)
vemurafenib = compound: CCCS(=O)(=O)Nc1ccc(F)c(C(=O)c2c[nH]c3ncc(-c4ccc(Cl)cc4)cc23)c1F [vemurafenib]
In short: (§1)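 K562 pellets were dounce-homogenised in PBS pH 7.4 with 1 mM MgCl2, and the crude extract at 1 mg/mL protein was treated with 10 μM compound for 30 min. Aliquots were heated for 3 min across 48°C-58°C, pooled, and brought to 0.5% NP-40 at 4°C; soluble protein was the supernatant after 21,000xg for 90 min. Soluble protein was quantified by TMTpro 16plex LC-MS/MS with channel sums equalised, and reported as log2 fold change in thermal stability against DMSO controls, with values from duplicates.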

Sequences of proteins named here, by UniProt entry; tags and fusion partners are left off. A change or cut given only in a name is not applied to a line headed by its entry.
UniProt Q8IWW6: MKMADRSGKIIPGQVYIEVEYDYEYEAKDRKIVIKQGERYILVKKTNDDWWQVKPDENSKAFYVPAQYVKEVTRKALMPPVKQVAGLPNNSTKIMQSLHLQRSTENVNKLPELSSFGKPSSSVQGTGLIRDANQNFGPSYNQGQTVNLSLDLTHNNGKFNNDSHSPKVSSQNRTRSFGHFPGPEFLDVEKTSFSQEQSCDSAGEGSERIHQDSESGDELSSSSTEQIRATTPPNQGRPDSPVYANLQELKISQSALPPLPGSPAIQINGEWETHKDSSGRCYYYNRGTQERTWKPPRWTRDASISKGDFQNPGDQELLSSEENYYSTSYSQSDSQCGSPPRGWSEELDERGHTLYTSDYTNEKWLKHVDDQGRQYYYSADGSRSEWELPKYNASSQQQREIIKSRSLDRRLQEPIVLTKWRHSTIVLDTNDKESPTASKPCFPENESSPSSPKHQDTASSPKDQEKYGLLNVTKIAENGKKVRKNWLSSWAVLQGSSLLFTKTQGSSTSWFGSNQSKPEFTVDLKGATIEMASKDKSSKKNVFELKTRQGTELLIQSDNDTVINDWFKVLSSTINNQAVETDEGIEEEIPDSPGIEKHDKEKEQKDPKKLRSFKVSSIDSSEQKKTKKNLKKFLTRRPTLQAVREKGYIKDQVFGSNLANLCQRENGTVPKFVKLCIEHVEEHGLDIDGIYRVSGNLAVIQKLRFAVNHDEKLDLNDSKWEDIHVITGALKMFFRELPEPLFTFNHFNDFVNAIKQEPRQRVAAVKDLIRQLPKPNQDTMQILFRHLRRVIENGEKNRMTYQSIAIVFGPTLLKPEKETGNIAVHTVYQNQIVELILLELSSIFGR
UniProt Q96KC2: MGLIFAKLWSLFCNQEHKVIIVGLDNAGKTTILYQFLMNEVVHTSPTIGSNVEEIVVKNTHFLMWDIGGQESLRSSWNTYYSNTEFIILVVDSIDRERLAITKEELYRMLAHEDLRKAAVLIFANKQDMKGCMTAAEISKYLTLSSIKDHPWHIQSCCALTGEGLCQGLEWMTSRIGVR
UniProt Q6UWY0: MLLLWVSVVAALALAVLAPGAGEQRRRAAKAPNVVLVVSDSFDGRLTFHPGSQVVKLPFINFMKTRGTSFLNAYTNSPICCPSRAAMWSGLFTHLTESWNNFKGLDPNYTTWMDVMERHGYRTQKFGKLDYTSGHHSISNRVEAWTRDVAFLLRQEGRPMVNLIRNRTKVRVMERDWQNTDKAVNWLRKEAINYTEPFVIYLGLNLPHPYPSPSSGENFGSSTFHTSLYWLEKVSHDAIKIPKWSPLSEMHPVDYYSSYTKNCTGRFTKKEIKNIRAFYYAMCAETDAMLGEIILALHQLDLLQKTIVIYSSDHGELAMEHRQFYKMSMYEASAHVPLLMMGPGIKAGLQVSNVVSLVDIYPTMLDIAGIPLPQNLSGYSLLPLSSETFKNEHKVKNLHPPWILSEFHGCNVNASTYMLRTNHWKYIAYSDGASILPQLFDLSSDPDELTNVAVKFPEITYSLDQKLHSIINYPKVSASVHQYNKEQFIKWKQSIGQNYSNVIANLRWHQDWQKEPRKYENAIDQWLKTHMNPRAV
UniProt Q8NFD5, whole entry, looked up: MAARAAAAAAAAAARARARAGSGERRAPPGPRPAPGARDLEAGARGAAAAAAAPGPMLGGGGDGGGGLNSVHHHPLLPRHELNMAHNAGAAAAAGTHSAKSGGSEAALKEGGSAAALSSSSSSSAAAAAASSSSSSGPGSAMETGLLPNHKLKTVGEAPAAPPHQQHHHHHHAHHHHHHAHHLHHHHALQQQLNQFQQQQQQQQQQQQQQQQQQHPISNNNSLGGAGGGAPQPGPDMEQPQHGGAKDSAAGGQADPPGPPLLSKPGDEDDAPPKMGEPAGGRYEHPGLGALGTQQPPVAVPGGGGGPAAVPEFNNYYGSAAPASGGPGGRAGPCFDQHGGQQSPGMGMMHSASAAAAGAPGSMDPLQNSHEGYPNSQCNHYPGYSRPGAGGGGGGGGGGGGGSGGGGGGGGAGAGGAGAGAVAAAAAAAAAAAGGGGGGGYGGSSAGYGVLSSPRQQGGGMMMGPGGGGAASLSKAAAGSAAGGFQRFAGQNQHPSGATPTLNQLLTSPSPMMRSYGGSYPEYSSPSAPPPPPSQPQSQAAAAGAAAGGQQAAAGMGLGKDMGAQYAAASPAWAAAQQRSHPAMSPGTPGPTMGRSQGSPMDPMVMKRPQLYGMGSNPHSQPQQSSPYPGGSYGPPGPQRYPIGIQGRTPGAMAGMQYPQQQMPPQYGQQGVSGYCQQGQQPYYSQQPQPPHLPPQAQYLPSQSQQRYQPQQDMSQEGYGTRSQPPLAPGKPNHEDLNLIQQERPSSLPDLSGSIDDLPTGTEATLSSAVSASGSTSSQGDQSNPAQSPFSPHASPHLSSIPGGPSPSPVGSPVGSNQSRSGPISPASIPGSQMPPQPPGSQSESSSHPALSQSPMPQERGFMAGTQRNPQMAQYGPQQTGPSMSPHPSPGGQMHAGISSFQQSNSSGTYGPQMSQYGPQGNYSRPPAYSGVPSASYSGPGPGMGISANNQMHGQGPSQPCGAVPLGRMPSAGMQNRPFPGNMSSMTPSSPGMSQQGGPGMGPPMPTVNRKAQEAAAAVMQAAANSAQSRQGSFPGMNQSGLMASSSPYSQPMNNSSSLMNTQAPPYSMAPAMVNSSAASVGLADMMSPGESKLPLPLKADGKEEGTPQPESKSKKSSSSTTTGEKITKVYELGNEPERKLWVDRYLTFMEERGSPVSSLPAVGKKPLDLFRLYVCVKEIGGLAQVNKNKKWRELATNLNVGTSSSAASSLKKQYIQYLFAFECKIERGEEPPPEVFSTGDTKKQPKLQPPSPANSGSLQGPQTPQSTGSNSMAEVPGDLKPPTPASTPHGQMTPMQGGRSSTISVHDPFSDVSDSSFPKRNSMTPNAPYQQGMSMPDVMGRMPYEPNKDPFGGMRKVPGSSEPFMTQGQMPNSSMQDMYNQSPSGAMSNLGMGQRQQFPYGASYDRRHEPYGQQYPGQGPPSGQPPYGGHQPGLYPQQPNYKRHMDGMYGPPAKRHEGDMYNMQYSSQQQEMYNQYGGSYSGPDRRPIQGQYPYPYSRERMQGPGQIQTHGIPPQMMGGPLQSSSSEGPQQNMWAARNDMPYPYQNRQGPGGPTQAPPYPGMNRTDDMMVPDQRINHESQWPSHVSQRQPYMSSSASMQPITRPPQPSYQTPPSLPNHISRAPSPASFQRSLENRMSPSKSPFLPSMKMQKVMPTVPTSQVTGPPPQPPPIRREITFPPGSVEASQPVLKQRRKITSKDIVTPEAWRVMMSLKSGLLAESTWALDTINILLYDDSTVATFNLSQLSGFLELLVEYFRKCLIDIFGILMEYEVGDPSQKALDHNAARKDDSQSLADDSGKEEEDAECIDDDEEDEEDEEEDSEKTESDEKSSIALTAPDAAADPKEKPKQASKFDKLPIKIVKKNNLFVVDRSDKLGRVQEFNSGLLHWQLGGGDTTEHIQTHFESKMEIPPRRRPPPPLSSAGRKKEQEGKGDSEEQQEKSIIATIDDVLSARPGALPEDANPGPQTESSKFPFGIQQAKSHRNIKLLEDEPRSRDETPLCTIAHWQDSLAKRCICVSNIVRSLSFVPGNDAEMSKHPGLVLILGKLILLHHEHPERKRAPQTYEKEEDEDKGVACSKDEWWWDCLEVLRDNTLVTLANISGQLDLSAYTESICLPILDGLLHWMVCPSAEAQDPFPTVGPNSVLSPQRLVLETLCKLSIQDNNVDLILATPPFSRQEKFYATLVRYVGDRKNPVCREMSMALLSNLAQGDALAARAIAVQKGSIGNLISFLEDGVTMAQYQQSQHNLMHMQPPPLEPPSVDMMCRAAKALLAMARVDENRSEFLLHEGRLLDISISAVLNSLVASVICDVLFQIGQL
UniProt O00192: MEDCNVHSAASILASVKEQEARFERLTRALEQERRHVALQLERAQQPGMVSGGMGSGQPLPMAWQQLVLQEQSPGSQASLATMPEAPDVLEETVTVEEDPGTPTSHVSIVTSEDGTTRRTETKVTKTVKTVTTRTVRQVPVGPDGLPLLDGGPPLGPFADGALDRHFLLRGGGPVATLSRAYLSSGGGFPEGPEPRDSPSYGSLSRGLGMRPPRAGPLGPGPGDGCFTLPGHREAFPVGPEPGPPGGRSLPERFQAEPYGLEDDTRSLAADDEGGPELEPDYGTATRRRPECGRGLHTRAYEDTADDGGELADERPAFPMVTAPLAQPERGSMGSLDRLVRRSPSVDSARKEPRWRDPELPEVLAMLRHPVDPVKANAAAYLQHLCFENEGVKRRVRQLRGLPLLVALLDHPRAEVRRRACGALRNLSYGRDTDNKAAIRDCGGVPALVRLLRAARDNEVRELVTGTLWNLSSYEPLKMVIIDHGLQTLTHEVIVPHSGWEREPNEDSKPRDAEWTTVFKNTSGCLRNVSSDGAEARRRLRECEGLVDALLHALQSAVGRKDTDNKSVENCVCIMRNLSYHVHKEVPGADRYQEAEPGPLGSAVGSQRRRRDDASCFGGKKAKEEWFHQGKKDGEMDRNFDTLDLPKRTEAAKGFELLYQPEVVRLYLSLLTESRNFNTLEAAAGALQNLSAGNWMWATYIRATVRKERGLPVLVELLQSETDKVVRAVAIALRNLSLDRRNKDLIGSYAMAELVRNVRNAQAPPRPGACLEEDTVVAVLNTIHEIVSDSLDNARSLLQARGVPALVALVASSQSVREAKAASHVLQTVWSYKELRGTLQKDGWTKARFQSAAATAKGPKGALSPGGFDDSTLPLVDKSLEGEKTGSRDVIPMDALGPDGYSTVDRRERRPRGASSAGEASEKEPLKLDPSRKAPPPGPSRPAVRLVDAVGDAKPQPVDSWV
UniProt Q9Y689: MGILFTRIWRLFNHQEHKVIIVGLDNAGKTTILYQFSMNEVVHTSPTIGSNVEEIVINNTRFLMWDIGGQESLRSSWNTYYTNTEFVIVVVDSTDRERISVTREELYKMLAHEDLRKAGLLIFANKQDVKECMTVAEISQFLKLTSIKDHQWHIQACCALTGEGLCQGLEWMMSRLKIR
UniProt Q14CB8: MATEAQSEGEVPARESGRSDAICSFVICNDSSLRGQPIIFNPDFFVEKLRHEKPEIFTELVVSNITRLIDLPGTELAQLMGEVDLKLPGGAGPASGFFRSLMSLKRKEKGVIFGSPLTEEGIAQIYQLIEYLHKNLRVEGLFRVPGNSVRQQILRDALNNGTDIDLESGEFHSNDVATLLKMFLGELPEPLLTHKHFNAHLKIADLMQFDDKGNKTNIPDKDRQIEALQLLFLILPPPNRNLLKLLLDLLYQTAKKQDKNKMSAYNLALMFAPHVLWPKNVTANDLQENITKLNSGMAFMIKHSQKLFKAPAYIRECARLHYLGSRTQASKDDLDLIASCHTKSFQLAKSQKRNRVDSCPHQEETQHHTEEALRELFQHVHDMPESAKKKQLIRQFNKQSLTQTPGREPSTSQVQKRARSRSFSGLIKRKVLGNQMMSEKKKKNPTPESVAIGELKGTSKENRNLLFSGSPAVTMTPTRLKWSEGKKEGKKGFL

[1] = compound: CCn1cc(-c2ccnc3[nH]c(-c4cccc(CN(C)C)c4)cc23)c(-c2ccc(NC(=O)N(C)C)cc2)n1
In short: as §1

[2] = compound: CN1CCC(CNc2ccc3ncc(-c4cccc(OC(F)(F)F)c4)n3n2)CC1
In short: as §1

saracatinib = compound: CN1CCN(CCOc2cc(OC3CCOCC3)c3c(Nc4c(Cl)ccc5c4OCO5)ncnc3c2)CC1 [saracatinib]
In short: as §1

alvocidib = compound: CN1CC[C@H](c2c(O)cc(O)c3c(=O)cc(-c4ccccc4Cl)oc23)[C@H](O)C1 [alvocidib]
In short: as §1

defactinib = compound: CNC(=O)c1ccc(Nc2ncc(C(F)(F)F)c(NCc3nccnc3N(C)S(C)(=O)=O)n2)cc1 [defactinib]
In short: as §1

[3] = compound: CNc1nc(-c2ccc3c(N)n[nH]c3c2)cc(N2C[C@@H](C(=O)NC3CCCCC3)CC[C@H]2C)n1
In short: as §1

[4] = compound: CCCS(=O)(=O)Nc1ccc(F)c(C(=O)c2c[nH]c3ncc(Cl)cc23)c1F
In short: as §1

barasertib = compound: CCN(CCCOc1ccc2c(Nc3cc(CC(=O)Nc4cccc(F)c4)[nH]n3)ncnc2c1)CCOP(=O)(O)O [barasertib]
In short: as §1

[5] = compound: CC[C@@H]1C(=O)N(C)c2cnc(Nc3ccc(C(=O)NC4CCN(C)CC4)cc3OC)nc2N1C1CCCC1
In short: as §1

volasertib = compound: CC[C@@H]1C(=O)N(C)c2cnc(Nc3ccc(C(=O)N[C@H]4CC[C@H](N5CCN(CC6CC6)CC5)CC4)cc3OC)nc2N1C(C)C [volasertib]
In short: as §1

[6] = compound: CCn1c(C(=O)N(C2CC2)C2CC2)cc2c3c(ncn3C)c(Nc3cc(C)n(C)n3)nc21
In short: as §1

sotrastaurin = compound: CN1CCN(c2nc(C3=C(c4c[nH]c5ccccc45)C(=O)NC3=O)c3ccccc3n2)CC1 [sotrastaurin]
In short: as §1

Tubastatin A = compound: CN1CCc2c(c3ccccc3n2Cc2ccc(C(=O)NO)cc2)C1 [Tubastatin A]
In short: as §1

[7] = compound: CNC(=O)C1=CC=CC=C1NC2=NC(=NC=C2Cl)NC3=C(C=C(C=C3)N4CCOCC4)OC
In short: as §1

encorafenib = compound: COC(=O)N[C@@H](C)CNc1nccc(-c2cn(C(C)C)nc2-c2cc(Cl)cc(NS(C)(=O)=O)c2F)n1 [encorafenib]
In short: as §1

[8] = compound: COC(=O)[C@H](CCSC)NC(=O)C1=C(C=C(C=C1)NC[C@H](CS)N)C2=CC=CC=C2
In short: as §1

alisertib = compound: COc1cc(Nc2ncc3c(n2)-c2ccc(Cl)cc2C(c2c(F)cccc2OC)=NC3)ccc1C(=O)O [alisertib]
In short: as §1

[9] = compound: COc1cc2nc(-c3cc(F)ccc3O)nc(N[C@@H]3CNC[C@H]3C(C)(C)O)c2cc1OC
In short: as §1

gefitinib = compound: COc1cc2ncnc(Nc3ccc(F)c(Cl)c3)c2cc1OCCCN1CCOCC1 [gefitinib]
In short: as §1

Measured: log2 fold change

ARHGAP12 isoform 3 (UniProt Q8IWW6)
inactive: vemurafenib -0.097 | [1] 0.093 | [2] 0.002 | saracatinib -0.151 | alvocidib -0.129 | defactinib 0.026 | [3] -0.03

ARL5B (UniProt Q96KC2)
inactive: vemurafenib 0.099 | [4] 0.039 | barasertib 0.122 | [5] -0.004 | volasertib -0.163 | [6] -0.2 | [1] -0.165 | [2] 0.026 | sotrastaurin 0.002 | alvocidib -0.035 | Tubastatin A 0.043 | [7] 0.007 | defactinib 0.036 | encorafenib 0.158 | [8] -0.311 | alisertib 0.02 | [9] 0 | gefitinib 0.013

ARSK (UniProt Q6UWY0)
inactive: vemurafenib 0.086 | [4] 0.091 | [5] -0.082 | volasertib -0.094 | [6] -0.058 | [1] -0.005 | [2] 0.153 | saracatinib 0.068 | alvocidib -0.123 | Tubastatin A 0.066 | [7] -0.015 | defactinib 0.089 | [3] -0.134 | encorafenib 0.042 | [8] 0.108 | [9] 0

ARID1B isoform 3 (UniProt Q8NFD5)
inactive: vemurafenib -0.039 | [4] 0.04 | barasertib 0.043 | [5] -0.03 | volasertib 0.001 | [6] 0.014 | [1] 0.155 | [2] -0.051 | saracatinib 0.024 | sotrastaurin 0.005 | alvocidib 0.037 | Tubastatin A -0.041 | [7] -0.026 | defactinib 0.053 | [3] -0.011 | encorafenib 0.001 | [8] 0.001 | alisertib 0.035 | [9] 0.004 | gefitinib -0.008

ARVCF (UniProt O00192)
inactive: vemurafenib 0.021 | [4] 0.125 | [5] -0.038 | volasertib 0.101 | [6] -0.011 | [1] -0.025 | [2] 0.12 | saracatinib 0.053 | sotrastaurin 0.034 | alvocidib -0.068 | Tubastatin A -0.084 | [7] 0.025 | defactinib -0.037 | [3] -0.027 | encorafenib -0.017 | [8] 0.021 | alisertib 0 | [9] 0.117 | gefitinib 0.146

ARL5A (UniProt Q9Y689)
inactive: vemurafenib 0.084 | [4] 0.07 | [5] 0.008 | volasertib -0.055 | [6] -0.071 | [1] -0.083 | [2] 0.005 | saracatinib 0.081 | sotrastaurin 0.126 | alvocidib -0.134 | Tubastatin A 0.02 | defactinib -0.105 | [3] 0.177 | encorafenib -0.06 | [8] -0.064 | alisertib -0.074 | [9] 0.094 | gefitinib -0.054

ARHGAP19 isoform 2 (UniProt Q14CB8)
inactive: vemurafenib -0.129 | barasertib -0.099 | [5] 0.089 | [6] -0.027 | saracatinib 0.085 | sotrastaurin -0.033 | Tubastatin A -0.109 | [7] 0.089 | defactinib 0.117 | [3] 0.22 | encorafenib -0.03 | [8] 0.054 | alisertib -0.004 | gefitinib 0.008

Reference: the supplement of paper PMC10849652
